These results are taken from paper PMC7819943, “Rice protein-binding microarrays: a tool to detect cis-acting elements near promoter regions in rice”.

Some of the results follow.

For this experiment, the target named is T1, OsSMF1 (Oryza sativa, UniProt Q6ZLB0 1-436).
T1 sequence: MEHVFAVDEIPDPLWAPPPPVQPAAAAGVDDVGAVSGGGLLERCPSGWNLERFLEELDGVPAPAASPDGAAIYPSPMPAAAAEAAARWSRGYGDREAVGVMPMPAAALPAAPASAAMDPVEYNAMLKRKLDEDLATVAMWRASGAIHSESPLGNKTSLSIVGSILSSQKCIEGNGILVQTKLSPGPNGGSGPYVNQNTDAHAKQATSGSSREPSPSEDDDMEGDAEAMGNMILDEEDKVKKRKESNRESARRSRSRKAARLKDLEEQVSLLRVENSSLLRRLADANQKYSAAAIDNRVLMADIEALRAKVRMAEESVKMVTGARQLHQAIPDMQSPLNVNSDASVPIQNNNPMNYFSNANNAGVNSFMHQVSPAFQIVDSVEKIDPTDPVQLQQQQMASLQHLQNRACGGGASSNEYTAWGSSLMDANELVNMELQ
Put plainly: protein-binding microarray (RPBM); PBS, 2% BSA, 51.3 ng/ul salmon testes DNA, 50 uM zinc acetate, 200 nM TF, 25 C, 1 h; high values mean tight binding. The note with it: protein: recombinant; tags: N-terminal polyhistidine and DsRed monomer fusion (pET32a); chain copies: 2; label: CyDye5-dUTP incorporated in the synthesized complementary strand; 3' TTTTT single-stranded linker to array surface; dsDNA, one strand shown. In short, it runs like this: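 An Axon 4000B scanner gave the binding signal as per-feature fluorescence intensity in arbitrary units. This followed washing of a custom Agilent array that had been incubated for 1 h at 25 °C with 200 nM protein in PBS, 2% BSA, salmon testes DNA and 50 µM zinc acetate. The proteins were transcription factors fused at the N-terminus to polyhistidine and DsRed, expressed in E. coli BL21-CodonPlus and purified on Ni–NTA.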
“TTCTAAATCGTAACCATTGTGTGTGTGTGTGGACATTTTCCGGAGTCACCTAGTGCAG”: the binding signal was 3580 fluorescence intensity (a.u.).

Take “GGAAGCAAACGAAGCCCAGAAATGACATGGCAAGCAGCTTCGGAGTCACCTAGTGCAG”: the binding signal was 5130 fluorescence intensity (a.u.).

With “ATATGAGATATTTCATATGCTGTTTATTGCTGCTGCCAGACGGAGTCACCTAGTGCAG”, the binding signal is 6080 fluorescence intensity (a.u.).

Take “CTACGAAAGTGAAAAGGGTGTTTATTTTCACCACCCTAGGCGGAGTCACCTAGTGCAG”: the binding signal was 4530 fluorescence intensity (a.u.).

“TAGTACCTTTACTTTTCAGTTTTCACCCCATGTGGCATACCGGAGTCACCTAGTGCAG”: the binding signal was 3620 fluorescence intensity (a.u.).

As for “GGACGGCAACAACATTGTCTCGTTGATAGCTACCTGGATCCGGAGTCACCTAGTGCAG”, the binding signal is 3420 fluorescence intensity (a.u.).

Consider “CATGGACAGATATATATAATCACCCATGCATATCAACAGTCGGAGTCACCTAGTGCAG”, for which the binding signal was 3300 fluorescence intensity (a.u.).

In the case of “CTTCCACACCGCAATCTCGCAACACATCAGCACACACCGCCGGAGTCACCTAGTGCAG”, the binding signal was 4730 fluorescence intensity (a.u.).

With “TTCTCCTTCTCCCCAATCGTCAACAGCACCGTCATTCCTCCGGAGTCACCTAGTGCAG”, the binding signal is 4810 fluorescence intensity (a.u.).

As for “TATCTCTTGAGGCCCATCACAAAATTTGGGCCCACATCACCGGAGTCACCTAGTGCAG”, the binding signal was 3490 fluorescence intensity (a.u.).

As to “CAGTACAAGTTGCTATACGTGTCCAGATTTACAAGAATAGCGGAGTCACCTAGTGCAG”, the binding signal is 3540 fluorescence intensity (a.u.).

In the case of “TGACTAGGTCGTTGCACGCGTCAGCCGGTAGTCCGGACAGCGGAGTCACCTAGTGCAG”, the binding signal is 6110 fluorescence intensity (a.u.).

For the sequence “ACCCTTCGTCACCCCTAACCCTAGGCTGAGTCATTCTCTTCGGAGTCACCTAGTGCAG”, the binding signal was 10900 fluorescence intensity (a.u.).

“GTTCGCCGCACGCGCGTGCGCGTGAGCCATCCCCGAGCCGCGGAGTCACCTAGTGCAG”: the binding signal is 3640 fluorescence intensity (a.u.).

Turning to “GCATTTAGTCACAGCAAATCAGTACTAGTAGTAGTAAGCACGGAGTCACCTAGTGCAG”, the binding signal is 4300 fluorescence intensity (a.u.).

Take “CTGGAGTTTGACTTATATGCTCCAAATAGAGGGGATGCGACGGAGTCACCTAGTGCAG”: the binding signal was 4250 fluorescence intensity (a.u.).

In the case of “AATGGGCCGAAAGCGTGTGATGACGTCATCAGATTTCGGCCGGAGTCACCTAGTGCAG”, the binding signal was 31400 fluorescence intensity (a.u.).

Regarding “CCTTAGTCCTAGCTGTCGCCCTCCGTCTCATTCAGTCCTCCGGAGTCACCTAGTGCAG”, the binding signal was 4380 fluorescence intensity (a.u.).

Consider “TTGTACGTCTCCGGGCAAGGGCCGCCGATGTAGCGGTCGTCGGAGTCACCTAGTGCAG”, for which the binding signal is 3190 fluorescence intensity (a.u.).

In the case of “TTTATCTTTCAAATATGGTGACTACATGTATAGATTAGTCCGGAGTCACCTAGTGCAG”, the binding signal is 3540 fluorescence intensity (a.u.).

As to “TTCCTATTTTGCCCTGTTTAGATTATTGAAGACTCATAAACGGAGTCACCTAGTGCAG”, the binding signal is 3780 fluorescence intensity (a.u.).

Turning to “AACCAGTCGCCGCTCGCCACGTGGCACCCTCCACCTCCCTCGGAGTCACCTAGTGCAG”, the binding signal is 50500 fluorescence intensity (a.u.).

On to “TCCCCGCCGCTTTGTGGGCCCTGCGTCAGATGCATGCAGTCGGAGTCACCTAGTGCAG”, for which the binding signal was 5310 fluorescence intensity (a.u.).

For “ATTGCACAGATTGTGACTAATTTGCGAGACGAATCTTTTACGGAGTCACCTAGTGCAG”, the binding signal is 3520 fluorescence intensity (a.u.).

Regarding “GATCGCAACTCACACATGCTACTGATGATGTACGTACGGACGGAGTCACCTAGTGCAG”, the binding signal is 25900 fluorescence intensity (a.u.).

Take “GATGTTGATGTCACAGCCAACATAGAGAGCATCTCCTTCCCGGAGTCACCTAGTGCAG”: the binding signal is 3780 fluorescence intensity (a.u.).

“CGCCGCCGCCGTTGGGGACGGCGATCGAGCAAGGGGCCGTCGGAGTCACCTAGTGCAG”: the binding signal is 26200 fluorescence intensity (a.u.).

Consider “CGACTTTGGTACACATCACACAACACAACACAACACCCGGCGGAGTCACCTAGTGCAG”, for which the binding signal is 3170 fluorescence intensity (a.u.).

In the case of “CCTCGCCGTCACGCTGGCGGTCGCCACCTCGTCGCTCTCCCGGAGTCACCTAGTGCAG”, the binding signal is 3720 fluorescence intensity (a.u.).

“AACTATCTTTATTCTAATGTATCGACGTGTAATTCTTTTACGGAGTCACCTAGTGCAG”: the binding signal is 3300 fluorescence intensity (a.u.).

On to “GGACATAATCTGACTCTTACTCTATTTATAGTATACAACTCGGAGTCACCTAGTGCAG”, for which the binding signal was 4640 fluorescence intensity (a.u.).

As for “CGTCTACCTCTACGACGACTTCGCCGTCACCGCCGCCACCCGGAGTCACCTAGTGCAG”, the binding signal is 3260 fluorescence intensity (a.u.).

As for “GATTGTGTCACGCTGCCTTTGTGACAACCTGCTTCTTCTTCGGAGTCACCTAGTGCAG”, the binding signal was 4250 fluorescence intensity (a.u.).

With “TGTAGTGTGTGTATATATACGTGCCACTGCCCCGTCGAGCCGGAGTCACCTAGTGCAG”, the binding signal is 4360 fluorescence intensity (a.u.).

Turning to “GTAGACCGAACTGTTAGCTAGTCAGCACCCACTAATCTCCCGGAGTCACCTAGTGCAG”, the binding signal was 4830 fluorescence intensity (a.u.).

On to “AGAAGGAAATGTTGGTGAAGAAGTTGTTATATTTTAGGATCGGAGTCACCTAGTGCAG”, for which the binding signal was 19500 fluorescence intensity (a.u.).

In the case of “CAGGAAGCGCGAGACCACCGCCTACGTCGTCTCCCTCGCCCGGAGTCACCTAGTGCAG”, the binding signal was 3250 fluorescence intensity (a.u.).

As to “CCCAGGCCGCCACCCTCGTCCACGCCAGCAACGTCCAGTACGGAGTCACCTAGTGCAG”, the binding signal was 6350 fluorescence intensity (a.u.).

Take “ATTTTGCATATCATTGCTGACGTCACTGCTAGCTGTATAACGGAGTCACCTAGTGCAG”: the binding signal is 19500 fluorescence intensity (a.u.).

Turning to “TTTATTTTCCAACCCATCTCTCTTCTTTCTGCGCACACGTCGGAGTCACCTAGTGCAG”, the binding signal is 4410 fluorescence intensity (a.u.).

Turning to “ATATAAAATGCAAACCAGTCACTTGTCATCTCAATCTCACCGGAGTCACCTAGTGCAG”, the binding signal was 4310 fluorescence intensity (a.u.).

In the case of “AAGGGAATATCACGATTTCTAGTTTGCAATCGCGTCACGTCGGAGTCACCTAGTGCAG”, the binding signal is 5110 fluorescence intensity (a.u.).
